Test results taken from the supplement of paper PMC8728848.
The other results are listed elsewhere or left out.

Key:
Assay in all cases: glycan array binding signal (z-score within array); higher = stronger binding
Details in all cases: glycan notation: IUPAC condensed, linker removed
[1] = target: Neu5Ac(a2-3)Gal(b1-4)GlcNAc(b1-3)[Neu5Ac(a2-3)Gal(b1-4)GlcNAc(b1-6)]GalNAc
How it was run: (§1)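 Glycan array binding is given as a within-array Z-score, which can be read as non-binding when negative. The arrays, 3228 of them, came from the Consortium for Functional Glycomics database and were retained only where the protein sequence was available. Z-scores were averaged across arrays of the same protein sequence at different concentrations or buffers and across linkers.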

[2] = target: Neu5Ac(a2-3)Gal(b1-4)GlcNAc(b1-6)GalNAc
How it was run: as §1

[3] = target: Neu5Ac(a2-3)Gal(b1-4)GlcNAc(b1-6)[Gal(b1-3)]GalNAc
How it was run: as §1

[4] = target: Neu5Ac(a2-3)Gal(b1-4)GlcNAc(b1-6)[Neu5Ac(a2-3)Gal(b1-3)]GalNAc
How it was run: as §1

[5] = target: Neu5Ac(a2-3)Gal(b1-4)GlcNAc6S
How it was run: as §1

[6] = target: Neu5Ac(a2-3)Gal(b1-4)[Fuc(a1-3)]GlcNAc
How it was run: as §1

[7] = target: Neu5Ac(a2-3)Gal(b1-4)[Fuc(a1-3)]GlcNAc(b1-2)Man
How it was run: as §1

[8] = target: Neu5Ac(a2-3)Gal(b1-4)[Fuc(a1-3)]GlcNAc(b1-3)Gal
How it was run: as §1

[9] = target: Neu5Ac(a2-3)Gal(b1-4)[Fuc(a1-3)]GlcNAc(b1-3)Gal(b1-4)GlcNAc
How it was run: as §1

[10] = target: Neu5Ac(a2-3)Gal(b1-4)[Fuc(a1-3)]GlcNAc(b1-3)Gal(b1-4)[Fuc(a1-3)]GlcNAc(b1-3)Gal(b1-4)[Fuc(a1-3)]GlcNAc
How it was run: as §1

[11] = target: Neu5Ac(a2-3)Gal(b1-4)[Fuc(a1-3)]GlcNAc(b1-3)GalNAc
How it was run: as §1

[12] = target: Neu5Ac(a2-3)Gal(b1-4)[Fuc(a1-3)]GlcNAc(b1-6)[Gal(b1-3)]GalNAc
How it was run: as §1

[13] = target: Neu5Ac(a2-3)Gal(b1-4)[Fuc(a1-3)]GlcNAc(b1-6)[Neu5Ac(a2-3)Gal(b1-3)]GalNAc
How it was run: as §1

[14] = target: Neu5Ac(a2-3)Gal(b1-4)[Fuc(a1-3)]GlcNAc6S
How it was run: as §1

[15] = target: Neu5Ac(a2-3)Gal6S(b1-4)GlcNAc
How it was run: as §1

[16] = target: Neu5Ac(a2-3)Gal6S(b1-4)[Fuc(a1-3)]GlcNAc
How it was run: as §1

[17] = target: Neu5Ac(a2-3)GalNAc
How it was run: as §1

[18] = target: Neu5Ac(a2-3)GalNAc(b1-4)GlcNAc
How it was run: as §1

[19] = target: Neu5Ac(a2-3)[GalNAc(b1-4)]Gal(b1-4)Glc
How it was run: as §1

[20] = target: Neu5Ac(a2-3)[GalNAc(b1-4)]Gal(b1-4)GlcNAc
How it was run: as §1

[21] = target: Neu5Ac(a2-3)[GalNAc(b1-4)]Gal(b1-4)GlcNAc(b1-3)GalNAc
How it was run: as §1

[22] = target: Neu5Ac(a2-3)[Neu5Ac(a2-6)]GalNAc
How it was run: as §1

[23] = target: Neu5Ac(a2-6)Gal
How it was run: as §1

[24] = target: Neu5Ac(a2-6)Gal(b1-3)GlcNAc(b1-3)[Gal(b1-4)GlcNAc(b1-6)]Gal(b1-4)Glc
How it was run: as §1

[25] = target: Neu5Ac(a2-6)Gal(b1-4)Glc
How it was run: as §1

[26] = target: Neu5Ac(a2-6)Gal(b1-4)GlcNAc
How it was run: as §1

[27] = target: Neu5Ac(a2-6)Gal(b1-4)GlcNAc(b1-2)Man
How it was run: as §1

[28] = target: Neu5Ac(a2-6)Gal(b1-4)GlcNAc(b1-2)Man(a1-3)Man(b1-4)GlcNAc(b1-4)GlcNAc
How it was run: as §1

[29] = target: Neu5Ac(a2-6)Gal(b1-4)GlcNAc(b1-2)Man(a1-3)[Gal(b1-4)GlcNAc(b1-2)Man(a1-6)]Man(b1-4)GlcNAc(b1-4)GlcNAc
How it was run: as §1

[30] = target: Neu5Ac(a2-6)Gal(b1-4)GlcNAc(b1-2)Man(a1-3)[GlcNAc(b1-2)Man(a1-6)]Man(b1-4)GlcNAc(b1-4)GlcNAc
How it was run: as §1

[31] = target: Neu5Ac(a2-6)Gal(b1-4)GlcNAc(b1-2)Man(a1-3)[GlcNAc(b1-4)][Neu5Ac(a2-6)Gal(b1-4)GlcNAc(b1-2)Man(a1-6)]Man(b1-4)GlcNAc(b1-4)GlcNAc
How it was run: as §1

[32] = target: Neu5Ac(a2-6)Gal(b1-4)GlcNAc(b1-2)Man(a1-3)[Man(a1-6)]Man(b1-4)GlcNAc(b1-4)GlcNAc
How it was run: as §1

[33] = target: Neu5Ac(a2-6)Gal(b1-4)GlcNAc(b1-2)Man(a1-3)[Neu5Ac(a2-3)Gal(b1-4)GlcNAc(b1-2)Man(a1-6)]Man(b1-4)GlcNAc(b1-4)GlcNAc
How it was run: as §1

[34] = target: Neu5Ac(a2-6)Gal(b1-4)GlcNAc(b1-2)Man(a1-3)[Neu5Ac(a2-6)Gal(b1-4)GlcNAc(b1-2)Man(a1-6)]Man(b1-4)GlcNAc(b1-4)GlcNAc
How it was run: as §1

[35] = target: Neu5Ac(a2-6)Gal(b1-4)GlcNAc(b1-2)Man(a1-3)[Neu5Ac(a2-6)Gal(b1-4)GlcNAc(b1-2)Man(a1-6)]Man(b1-4)GlcNAc(b1-4)[Fuc(a1-6)]GlcNAc
How it was run: as §1

[36] = target: Neu5Ac(a2-6)Gal(b1-4)GlcNAc(b1-2)Man(a1-6)Man(b1-4)GlcNAc(b1-4)GlcNAc
How it was run: as §1

[37] = target: Neu5Ac(a2-6)Gal(b1-4)GlcNAc(b1-2)Man(a1-6)[Gal(b1-4)GlcNAc(b1-2)Man(a1-3)]Man(b1-4)GlcNAc(b1-4)GlcNAc
How it was run: as §1

[38] = target: Neu5Ac(a2-6)Gal(b1-4)GlcNAc(b1-2)Man(a1-6)[GlcNAc(b1-2)Man(a1-3)]Man(b1-4)GlcNAc(b1-4)GlcNAc
How it was run: as §1

[39] = target: Neu5Ac(a2-6)Gal(b1-4)GlcNAc(b1-2)Man(a1-6)[Man(a1-3)]Man(b1-4)GlcNAc(b1-4)GlcNAc
How it was run: as §1

[40] = target: Neu5Ac(a2-6)Gal(b1-4)GlcNAc(b1-2)[Neu5Ac(a2-6)Gal(b1-4)GlcNAc(b1-4)]Man(a1-3)[GlcNAc(b1-4)][Neu5Ac(a2-6)Gal(b1-4)GlcNAc(b1-2)[Neu5Ac(a2-6)Gal(b1-4)GlcNAc(b1-6)]Man(a1-6)]Man(b1-4)GlcNAc(b1-4)GlcNAc
How it was run: as §1

[41] = target: Neu5Ac(a2-6)Gal(b1-4)GlcNAc(b1-2)[Neu5Ac(a2-6)Gal(b1-4)GlcNAc(b1-4)]Man(a1-3)[GlcNAc(b1-4)][Neu5Ac(a2-6)Gal(b1-4)GlcNAc(b1-4)Man(a1-6)]Man(b1-4)GlcNAc(b1-4)GlcNAc
How it was run: as §1

[42] = target: Neu5Ac(a2-6)Gal(b1-4)GlcNAc(b1-2)[Neu5Ac(a2-6)Gal(b1-4)GlcNAc(b1-6)]Man(a1-6)[Neu5Ac(a2-6)Gal(b1-4)GlcNAc(b1-2)Man(a1-3)][GlcNAc(b1-4)]Man(b1-4)GlcNAc(b1-4)GlcNAc
How it was run: as §1

[43] = target: Neu5Ac(a2-6)Gal(b1-4)GlcNAc(b1-3)Gal(b1-3)GlcNAc
How it was run: as §1

[44] = target: Neu5Ac(a2-6)Gal(b1-4)GlcNAc(b1-3)Gal(b1-4)GlcNAc
How it was run: as §1

[45] = target: Neu5Ac(a2-6)Gal(b1-4)GlcNAc(b1-3)Gal(b1-4)GlcNAc(b1-2)Man(a1-3)[Neu5Ac(a2-6)Gal(b1-4)GlcNAc(b1-3)Gal(b1-4)GlcNAc(b1-2)Man(a1-6)]GalNAc
How it was run: as §1

B1: SP15308B-bot-339-22-339 (Bacteroides ovatus) (protein)
chain: NEWEDEQYEQYVSFKAPIASGSDGVTTIYVRYKDNGKVTYQLPIIVSGSTVNSQDRDIHIAVDKDTLKTLNIERFSLYRPELWYTEMEEDKYEFPETVHIPAGSCVELLNIDFNLQDIDMLEKWVLPLTIVDDGSYAYQSHPRKNYAKALLKVVPFNNYSGSYTASSMKVYTYINGKPDTNARTTDKRTGYVVDNNSIFFYAGLINEDMDKDMRKKYKINVHFKEDGTLDMKQDDPSNEMEFELIGTPTYSSTSVMDATRPYLERRYVQIMFEYDFQDFTYGGSGTEVIPIKYRVAGSMTLLRNINTQIPDEDQQIEW
[1]
  glycan array binding signal (z-score): 0.108
[2]
  glycan array binding signal (z-score): -0.334
[3]
  glycan array binding signal (z-score): -0.61
[4]
  glycan array binding signal (z-score): -0.319
[5]
  glycan array binding signal (z-score): -0.466
[6]
  glycan array binding signal (z-score): -0.494
[7]
  glycan array binding signal (z-score): 0.331
[8]
  glycan array binding signal (z-score): -0.207
[9]
  glycan array binding signal (z-score): 0.57
[10]
  glycan array binding signal (z-score): -0.223
[11]
  glycan array binding signal (z-score): 2.38
[12]
  glycan array binding signal (z-score): 0.253
[13]
  glycan array binding signal (z-score): 0.467
[14]
  glycan array binding signal (z-score): -0.53
[15]
  glycan array binding signal (z-score): -0.082
[16]
  glycan array binding signal (z-score): -0.121
[17]
  glycan array binding signal (z-score): -0.415
[18]
  glycan array binding signal (z-score): -0.165
[19]
  glycan array binding signal (z-score): -0.526
[20]
  glycan array binding signal (z-score): -0.212
[21]
  glycan array binding signal (z-score): 1.01
[22]
  glycan array binding signal (z-score): -0.18
[23]
  glycan array binding signal (z-score): -0.343
[24]
  glycan array binding signal (z-score): -0.501
[25]
  glycan array binding signal (z-score): -0.229
[26]
  glycan array binding signal (z-score): 0.016
[27]
  glycan array binding signal (z-score): -0.497
[28]
  glycan array binding signal (z-score): 0.163
[29]
  glycan array binding signal (z-score): 0.001
[30]
  glycan array binding signal (z-score): 0.186
[31]
  glycan array binding signal (z-score): -0.559
[32]
  glycan array binding signal (z-score): 0.075
[33]
  glycan array binding signal (z-score): -0.494
[34]
  glycan array binding signal (z-score): -0.467
[35]
  glycan array binding signal (z-score): 1.73
[36]
  glycan array binding signal (z-score): -0.086
[37]
  glycan array binding signal (z-score): -0.327
[38]
  glycan array binding signal (z-score): -0.527
[39]
  glycan array binding signal (z-score): -0.487
[40]
  glycan array binding signal (z-score): 0.873
[41]
  glycan array binding signal (z-score): -0.243
[42]
  glycan array binding signal (z-score): -0.729
[43]
  glycan array binding signal (z-score): -0.632
[44]
  glycan array binding signal (z-score): -0.288
[45]
  glycan array binding signal (z-score): -0.499
